{"source": "the supplement of paper PMC8728848", "binders": {"B1": {"name": "Epa8 (Candida glabrata) (protein)", "chain": "MGSSHHHHHHSSGLVPRGSHMASSRALSDYPLGCSPLLGTKLTPGLSMELYEYPLDNHGIGPHCWDPAYLNPEYPRTGFESHKLIGTAQNVMSLNFEHRTQDCHVEFSNLPASFNFPDQITLTNFTMLLYGYFKPKESGRYRFHMEADDLLLMNLGAGNAFDCCAHEATRNNLGDYIAYDIWAGTRKDVEVFLEKEVFYPLRLFFNNRDGRAALDFSYYLNGATEPGTDIPELLFSLPDGESCPAYI"}}, "test_in_all_cases": "glycan array binding signal (z-score within array); higher = stronger binding", "conditions_in_all_cases": "glycan notation: IUPAC condensed, linker removed", "key": {"Fuc(a1-2)Gal": {"target": "Fuc(a1-2)Gal", "method_in_brief": "(§1)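 Arrays were curated from the Consortium for Functional Glycomics database, 3228 in total, and kept only where the protein sequence was available. Binding is expressed as a within-array Z-score. This score was averaged across arrays of the same protein sequence at different concentrations or buffers and across linkers, and negative values can be read as non-binding.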"}, "Fuc(a1-2)Gal(b1-3)GalNAc": {"target": "Fuc(a1-2)Gal(b1-3)GalNAc", "method_in_brief": "as §1"}, "[1]": {"target": "Fuc(a1-2)Gal(b1-3)GalNAc(a1-3)[Fuc(a1-2)]Gal(b1-4)Glc", "method_in_brief": "as §1"}, "[2]": {"target": "Fuc(a1-2)Gal(b1-3)GalNAc(a1-3)[Fuc(a1-2)]Gal(b1-4)GlcNAc", "method_in_brief": "as §1"}, "[3]": {"target": "Fuc(a1-2)Gal(b1-3)GalNAc(b1-3)Gal", "method_in_brief": "as §1"}, "[4]": {"target": "Fuc(a1-2)Gal(b1-3)GalNAc(b1-3)Gal(a1-4)Gal(b1-4)Glc", "method_in_brief": "as §1"}, "[5]": {"target": "Fuc(a1-2)Gal(b1-3)GalNAc(b1-4)[Neu5Ac(a2-3)]Gal(b1-4)Glc", "method_in_brief": "as §1"}, "Fuc(a1-2)Gal(b1-3)GlcNAc": {"target": "Fuc(a1-2)Gal(b1-3)GlcNAc", "method_in_brief": "as §1"}, "[6]": {"target": "Fuc(a1-2)Gal(b1-3)GlcNAc(b1-2)Man(a1-3)[Fuc(a1-2)Gal(b1-3)GlcNAc(b1-2)Man(a1-6)]Man(b1-4)GlcNAc(b1-4)GlcNAc", "method_in_brief": "as §1"}, "[7]": {"target": "Fuc(a1-2)Gal(b1-3)GlcNAc(b1-2)Man(a1-3)[Fuc(a1-2)Gal(b1-3)GlcNAc(b1-2)Man(a1-6)]Man(b1-4)GlcNAc(b1-4)[Fuc(a1-6)]GlcNAc", "method_in_brief": "as §1"}, "[8]": {"target": "Fuc(a1-2)Gal(b1-3)GlcNAc(b1-3)Gal(b1-4)Glc", "method_in_brief": "as §1"}, "[9]": {"target": "Fuc(a1-2)Gal(b1-3)GlcNAc(b1-3)GalNAc", "method_in_brief": "as §1"}, "[10]": {"target": "Fuc(a1-2)Gal(b1-3)GlcNAc(b1-3)[Fuc(a1-2)Gal(b1-3)GlcNAc(b1-6)]GalNAc", "method_in_brief": "as §1"}, "[11]": {"target": "Fuc(a1-2)Gal(b1-3)GlcNAc(b1-3)[Gal(b1-4)GlcNAc(b1-6)]Gal(b1-4)Glc", "method_in_brief": "as §1"}, "[12]": {"target": "Fuc(a1-2)Gal(b1-3)GlcNAc(b1-3)[Neu5Ac(a2-6)Gal(b1-4)GlcNAc(b1-6)]Gal(b1-4)Glc", "method_in_brief": "as §1"}, "[13]": {"target": "Fuc(a1-2)Gal(b1-3)GlcNAc6S", "method_in_brief": "as §1"}, "[14]": {"target": "Fuc(a1-2)Gal(b1-3)[Fuc(a1-4)]GlcNAc", "method_in_brief": "as §1"}, "[15]": {"target": "Fuc(a1-2)Gal(b1-3)[Fuc(a1-4)]GlcNAc(b1-2)Man(a1-3)[Fuc(a1-2)Gal(b1-3)[Fuc(a1-4)]GlcNAc(b1-2)Man(a1-3)]Man(b1-4)GlcNAc(b1-4)GlcNAc", "method_in_brief": "as §1"}, "[16]": {"target": "Fuc(a1-2)Gal(b1-3)[Fuc(a1-4)]GlcNAc(b1-2)Man(a1-3)[Fuc(a1-2)Gal(b1-3)[Fuc(a1-4)]GlcNAc(b1-2)Man(a1-6)]Man(b1-4)GlcNAc(b1-4)[Fuc(a1-6)]GlcNAc(b1-4)[Fuc(a1-6)]GlcNAc", "method_in_brief": "as §1"}, "[17]": {"target": "Fuc(a1-2)Gal(b1-3)[Fuc(a1-4)]GlcNAc(b1-3)[Fuc(a1-3)[Gal(b1-4)]GlcNAc(b1-6)]Gal(b1-4)Glc", "method_in_brief": "as §1"}, "[18]": {"target": "Fuc(a1-2)Gal(b1-3)[Fuc(a1-4)]GlcNAc(b1-3)[Gal(b1-4)GlcNAc(b1-6)]Gal(b1-4)Glc", "method_in_brief": "as §1"}, "[19]": {"target": "Fuc(a1-2)Gal(b1-4)Fuc(a1-3)]GlcNAc(b1-2)Man(a1-3)[Fuc(a1-2)Gal(b1-4)[Fuc(a1-3)]GlcNAc(b1-2)Man(a1-6)]Man(b1-4)GlcNAc(b1-4)GlcNAc", "method_in_brief": "as §1"}, "Fuc(a1-2)Gal(b1-4)Glc": {"target": "Fuc(a1-2)Gal(b1-4)Glc", "method_in_brief": "as §1"}, "Fuc(a1-2)Gal(b1-4)Glc6S": {"target": "Fuc(a1-2)Gal(b1-4)Glc6S", "method_in_brief": "as §1"}, "Fuc(a1-2)Gal(b1-4)GlcNAc": {"target": "Fuc(a1-2)Gal(b1-4)GlcNAc", "method_in_brief": "as §1"}, "[20]": {"target": "Fuc(a1-2)Gal(b1-4)GlcNAc(b1-2)Man", "method_in_brief": "as §1"}, "[21]": {"target": "Fuc(a1-2)Gal(b1-4)GlcNAc(b1-2)Man(a1-3)[Fuc(a1-2)Gal(b1-4)GlcNAc(b1-2)Man(a1-6)]Man(b1-4)GlcNAc(b1-4)GlcNAc", "method_in_brief": "as §1"}, "[22]": {"target": "Fuc(a1-2)Gal(b1-4)GlcNAc(b1-2)Man(a1-3)[Fuc(a1-2)Gal(b1-4)GlcNAc(b1-2)Man(a1-6)]Man(b1-4)GlcNAc(b1-4)[Fuc(a1-6)]GlcNAc", "method_in_brief": "as §1"}, "[23]": {"target": "Fuc(a1-2)Gal(b1-4)GlcNAc(b1-2)[Fuc(a1-2)Gal(b1-4)GlcNAc(b1-4)]Man(a1-3)[Fuc(a1-2)Gal(b1-4)GlcNAc(b1-2)Man(a1-6)]Man(b1-4)GlcNAc(b1-4)GlcNAc", "method_in_brief": "as §1"}, "[24]": {"target": "Fuc(a1-2)Gal(b1-4)GlcNAc(b1-3)Gal(b1-4)GlcNAc", "method_in_brief": "as §1"}}, "note": "This is one part of the list.", "data": [{"binder": "B1", "values": [{"measurement": "glycan array binding signal (z-score)", "setting": "Fuc(a1-2)Gal", "value": 0.189}, {"measurement": "glycan array binding signal (z-score)", "setting": "Fuc(a1-2)Gal(b1-3)GalNAc", "value": -0.392}, {"measurement": "glycan array binding signal (z-score)", "setting": "[1]", "value": -0.43}, {"measurement": "glycan array binding signal (z-score)", "setting": "[2]", "value": -0.029}, {"measurement": "glycan array binding signal (z-score)", "setting": "[3]", "value": 0.551}, {"measurement": "glycan array binding signal (z-score)", "setting": "[4]", "value": 0.557}, {"measurement": "glycan array binding signal (z-score)", "setting": "[5]", "value": -0.251}, {"measurement": "glycan array binding signal (z-score)", "setting": "Fuc(a1-2)Gal(b1-3)GlcNAc", "value": -0.172}, {"measurement": "glycan array binding signal (z-score)", "setting": "[6]", "value": 1.21}, {"measurement": "glycan array binding signal (z-score)", "setting": "[7]", "value": 0.141}, {"measurement": "glycan array binding signal (z-score)", "setting": "[8]", "value": -0.287}, {"measurement": "glycan array binding signal (z-score)", "setting": "[9]", "value": -0.189}, {"measurement": "glycan array binding signal (z-score)", "setting": "[10]", "value": -0.495}, {"measurement": "glycan array binding signal (z-score)", "setting": "[11]", "value": 0.534}, {"measurement": "glycan array binding signal (z-score)", "setting": "[12]", "value": -0.205}, {"measurement": "glycan array binding signal (z-score)", "setting": "[13]", "value": -0.148}, {"measurement": "glycan array binding signal (z-score)", "setting": "[14]", "value": -0.773}, {"measurement": "glycan array binding signal (z-score)", "setting": "[15]", "value": 0.514}, {"measurement": "glycan array binding signal (z-score)", "setting": "[16]", "value": 0.464}, {"measurement": "glycan array binding signal (z-score)", "setting": "[17]", "value": -0.717}, {"measurement": "glycan array binding signal (z-score)", "setting": "[18]", "value": -0.168}, {"measurement": "glycan array binding signal (z-score)", "setting": "[19]", "value": 4.2}, {"measurement": "glycan array binding signal (z-score)", "setting": "Fuc(a1-2)Gal(b1-4)Glc", "value": -0.649}, {"measurement": "glycan array binding signal (z-score)", "setting": "Fuc(a1-2)Gal(b1-4)Glc6S", "value": 0.004}, {"measurement": "glycan array binding signal (z-score)", "setting": "Fuc(a1-2)Gal(b1-4)GlcNAc", "value": -0.45}, {"measurement": "glycan array binding signal (z-score)", "setting": "[20]", "value": 0.225}, {"measurement": "glycan array binding signal (z-score)", "setting": "[21]", "value": -0.733}, {"measurement": "glycan array binding signal (z-score)", "setting": "[22]", "value": -0.33}, {"measurement": "glycan array binding signal (z-score)", "setting": "[23]", "value": -0.31}, {"measurement": "glycan array binding signal (z-score)", "setting": "[24]", "value": -0.773}]}]}
